Data set [1] is described as follows: Thin film formability of resist composition. On the set-up: key: A: the thin film formability was good; C: the formed film had defects. Conditions: resist composition spin coated on silicon wafer, prebaked 110° C., 40 nm film.
Data set [2] is described as follows: Pattern evaluation of resist pattern (sensitivity and shape evaluation), electron beam. Conditions: minimum energy per unit area for pattern, electron beam 1:1 line and space, 60 nm film, 2.38% TMAH development.

Each structure is given as a SMILES string. Some entries repeat one wording, which the source may state once for all of them.

With `CC1(OC(=O)COc2ccc([Te]c3ccc(OCC(=O)OC4(C)C5CC6CC(C5)CC4C6)cc3)cc2)C2CC3CC(C2)CC1C3` (centres unmarked) [TDP-ADBAC], in data set [1], the Thin film formability entry is recorded as “A”. Also, in data set [2], the Sensitivity evaluation result is “A (the pattern was obtained at less than 50 μC/cm^2)”.

Regarding `CC(C)(C)OC(=O)COc1ccc([Te]c2ccc(OCC(=O)OC(C)(C)C)cc2)cc1` [Ph-TDP-BOC], in data set [1], the Thin film formability result was “A”. For the same compound, the Sensitivity evaluation entry in data set [2] is listed as “A (the pattern was obtained at less than 50 μC/cm^2)”.

Take `Oc1ccc([Te](Cl)(Cl)c2ccc(O)c(-c3ccccc3)c2)cc1-c1ccccc1` [Ph-BHPT, bis(3-phenyl-4-hydroxyphenyl)tellurium dichloride]: the Thin film formability entry in data set [1] is “A”. The Sensitivity evaluation result in data set [2] is on record as “A (the pattern was obtained at less than 50 μC/cm^2)”.

For `Oc1ccc([Te]c2ccc(O)c(-c3ccccc3)c2)cc1-c1ccccc1` [Ph-TDP, bis(3-phenyl-4-hydroxyphenyl)tellurium], the Thin film formability result in data set [1] is “A”. Further, the Sensitivity evaluation entry in data set [2] was “A (the pattern was obtained at less than 50 μC/cm^2)”.

As for `CC1(OC(=O)COc2ccc([Te]c3ccc(OCC(=O)OC4(C)C5CC6CC(C5)CC4C6)c(-c4ccccc4)c3)cc2-c2ccccc2)C2CC3CC(C2)CC1C3` (centres unmarked) [Ph-TDP-ADBAC], the Thin film formability result in data set [1] was “A”. Besides, in data set [2], the Sensitivity evaluation result is recorded as “A (the pattern was obtained at less than 50 μC/cm^2)”.

Regarding `CC1(OC(=O)COc2ccc([Te](Cl)(Cl)c3ccc(OCC(=O)OC4(C)C5CC6CC(C5)CC4C6)cc3)cc2)C2CC3CC(C2)CC1C3` (centres unmarked) [BHPT-ADBAC, bis(4-(2-methyl-2-adamantyloxycarbonylmethoxy)phenyl)tellurium dichloride], the Thin film formability entry in data set [1] is given as “A”. Besides, the Sensitivity evaluation result in data set [2] is reported as “A (the pattern was obtained at less than 50 μC/cm^2)”.

Regarding `CCOC(C)Oc1ccc([Te](Cl)(Cl)c2ccc(OC(C)OCC)c(-c3ccccc3)c2)cc1-c1ccccc1` (centres unmarked) [Ph-TDP-EE], the Thin film formability result in data set [1] is on record as “A”. Besides, the Sensitivity evaluation result in data set [2] is “A (the pattern was obtained at less than 50 μC/cm^2)”.

Consider `CC1(OC(=O)COc2ccc([Te](Cl)(Cl)c3ccc(OCC(=O)OC4(C)C5CC6CC(C5)CC4C6)c(-c4ccccc4)c3)cc2-c2ccccc2)C2CC3CC(C2)CC1C3` (centres unmarked) [Ph-BHPT-ADBAC], for which the Thin film formability result in data set [1] is on record as “A”. For the same compound, the Sensitivity evaluation entry in data set [2] is reported as “A (the pattern was obtained at less than 50 μC/cm^2)”.

For the compound `Oc1ccc([Te](Cl)(Cl)c2ccc(O)cc2)cc1` [BHPT, bis(4-hydroxyphenyl)tellurium dichloride], in data set [1], the Thin film formability entry is on record as “A”. In addition, the Sensitivity evaluation result in data set [2] is recorded as “A (the pattern was obtained at less than 50 μC/cm^2)”.

As to `Oc1ccc([Te]c2ccc(O)cc2)cc1` [TDP, 4,4′-telluriumdiphenol], the Thin film formability result in data set [1] is “A”. In data set [2], the Sensitivity evaluation entry was “A (the pattern was obtained at less than 50 μC/cm^2)”.

The record behind these values is patent publication US11852970B2, “Material for lithography, production method therefor, composition for lithography, pattern formation method, compound, resin, and method for purifying the compound or the resin” (Mitsubishi Gas Chemical Company, Inc., priority 2015, dated 2023).
